These are yes or no findings as the source states them, for the method shown. Some binding calls cover weakened binding; strength is not graded here.
Tests used:
[1] = molecular target: cynomologous CTLA-4 expressed on cells (293T cells transiently transfected with cynomologous CTLA-4; in vitro-activated cynomologous CD4+ T cells) (cynomolgus monkey) (UniProt G7PL88); experiment: flow cytometry on cynomolgus CTLA-4 expressing cells (FIG. 25B)
[2] = molecular target: recombinant cynomologous (cm) CTLA-4-Fc protein (R&D Systems) (cynomolgus monkey) (UniProt G7PL88); experiment: competitive flow cytometry on human and on cyno CTLA-4 293T cells, soluble cyno CTLA-4-Fc
[3] = molecular target: recombinant cynomologous (cm) CTLA-4-Fc protein (R&D Systems) (cynomolgus monkey) (UniProt G7PL88); experiment: ELISA, CTLA-4-Fc coated at 1 pmol/well, IgG titrated
[4] = molecular target: recombinant cynomologous (cm) CTLA-4-Fc protein (R&D Systems) (cynomolgus monkey) (UniProt G7PL88); experiment: ELISA on recombinant cynomolgus CTLA-4 protein (FIG. 24B)
[5] = molecular target: recombinant cynomologous (cm) CTLA-4-Fc protein (R&D Systems) (cynomolgus monkey) (UniProt G7PL88); experiment: competitive flow cytometry on 293T-CTLA-4 cells, soluble rcmCTLA-4-Fc
[6] = molecular target: cynomologous CTLA-4 expressed on cells (293T cells transiently transfected with cynomologous CTLA-4; in vitro-activated cynomologous CD4+ T cells) (cynomolgus monkey) (UniProt G7PL88); experiment: flow cytometry on in vitro-activated cynomolgus CD4+ T cells (endogenous CTLA-4)
[7] = molecular target: cynomologous CTLA-4 expressed on cells (293T cells transiently transfected with cynomologous CTLA-4; in vitro-activated cynomologous CD4+ T cells) (cynomolgus monkey) (UniProt G7PL88); experiment: flow cytometry on 293T cells transiently transfected with cynomolgus CTLA-4
[8] = molecular target: recombinant cynomologous (cm) CTLA-4-Fc protein (R&D Systems) (cynomolgus monkey) (UniProt G7PL88); experiment: ELISA, CTLA-4-Fc coated, IgG titrated

Sequences of proteins named here, by UniProt entry; tags and fusion partners are left off. A change or cut given only in a name is not applied to a line headed by its entry. A line that says so, or that is headed by a name, gives the form on record, which may keep a tag or linker.
recombinant cynomologous (cm) CTLA-4-Fc protein (R&D Systems) (G7PL88, form named): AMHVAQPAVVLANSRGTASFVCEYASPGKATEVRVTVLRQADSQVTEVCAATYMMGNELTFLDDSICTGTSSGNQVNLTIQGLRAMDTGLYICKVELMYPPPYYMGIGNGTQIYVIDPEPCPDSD

Measured: binding

B1: 4-E03 (antibody, human IgG1, lambda, V domains shown)
VH: EVQLLESGGGLVQPGGSLRLSCAASGFTFSDYYMSWVRQAPGKGLEWVSGISWSSRDKGYADSVKGRFTISRDNSKNTLYLQMNSLRAEDTAVYYCTTDLARYWGQGTLVTVSS
VL: QSVLTQPPSASGTPGQRVTISCTGSSSNIGAGYDVHWYQQLPGTAPKLLIYGNDNRPSGVPDRFSGSKSGTSASLAISGLRSEDEADYYCAVWDDSLNGVVFGGGTKLTVLG
binds: all assays above

B2: 2-F09 (antibody, V domains shown)
VH: EVQLLESGGGLVQPGGSLRLSCAASGFTFKAYSMSWIRQAPGKGLEWVSGISNTGGSTDFADSVKGRFTISRDNSKNTLYLQMNSLRAEDTAMYYCARLGYSGYDDRGMDVWGQGTLVTVSS
VL: QSVLTQPPSASGTPGQRVTISCSGSSSNIGSNYVYWYQQLPGTAPKLLIYGNSNRPSGVPDRFSGSKSGTSASLAISGLRSEDEADYYCQSYDSSLSGPVVFGGGTKLTVLG
binds: [2] | [3] | [5] | [6] | [7]

Reference: patent US20220041723A1
